For assay [1], the target named is T1, Plasmodium falciparum Hsp70-Hsp90 organising protein (PfHop) (Plasmodium falciparum), Q8ILC1.
T1 chain: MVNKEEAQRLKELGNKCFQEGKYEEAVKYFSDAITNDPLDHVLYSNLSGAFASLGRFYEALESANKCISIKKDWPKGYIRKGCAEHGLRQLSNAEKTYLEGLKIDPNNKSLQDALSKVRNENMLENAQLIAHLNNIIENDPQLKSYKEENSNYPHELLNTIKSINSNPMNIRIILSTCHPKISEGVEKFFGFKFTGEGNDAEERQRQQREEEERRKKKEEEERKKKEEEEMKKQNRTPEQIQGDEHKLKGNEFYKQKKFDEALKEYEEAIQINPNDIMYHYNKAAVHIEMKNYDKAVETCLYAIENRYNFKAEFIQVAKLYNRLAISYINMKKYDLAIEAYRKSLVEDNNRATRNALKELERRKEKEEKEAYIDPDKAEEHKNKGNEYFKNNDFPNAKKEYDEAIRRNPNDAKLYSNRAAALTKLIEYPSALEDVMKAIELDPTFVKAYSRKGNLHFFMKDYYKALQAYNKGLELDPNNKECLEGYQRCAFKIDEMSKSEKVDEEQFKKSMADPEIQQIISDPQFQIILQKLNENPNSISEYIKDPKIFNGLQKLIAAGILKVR
The assay is described as follows: SEC; HiLoad 16/600 Superdex 200 pg, buffer C (10 mM Tris-HCl pH 8, 300 mM NaCl, 5% glycerol, 0.2 mM TCEP); reducing conditions; fractions analysed by SDS-PAGE; both purified. As to conditions: remark: other sources report otherwise.

The target in assay [2] is T1, Plasmodium falciparum Hsp70-Hsp90 …. In words: SEC-MALS; Superdex S200 Increase 10/300 GL, buffer C (10 mM Tris-HCl pH 8, 300 mM NaCl, 5% glycerol, 0.2 mM TCEP), 100 μg PfHop injected, 0.5 ml/min; mini DAWN TREOS MALS detector; BSA and ovalbumin as molecular-weight controls; both purified. The settings on record: remark: other sources report otherwise. A general note: SEC sorts molecules by how far they enter the pores of the column.

Binding data for 1 molecule are collected here from article PMC7188212.

Results are given in words; binding and its absence hold for the method and conditions named.

B1: Plasmodium falciparum Hsp70-Hsp90 organising protein (PfHop), Q8ILC1 1-564 (protein)
chain: T1 chain
B1: the binding entry in assay [1] was “no binding”; in assay [2], “no binding (tested: 100 μg of PfHop injected)”.
